The target in assay [1] is NEDD1, overexpressed in HEK293T cells (human) (UniProt Q8NHV4). The assay can be described thus: pull-down; overexpressed NEDD1 (wild type or alanine mutants) pulled down from HEK293T cells, γ-tubulin detected.
A further assay has as its target GCP5-SBP-Myc (human) (UniProt Q96RT8). The assay can be described thus: pull-down; SBP pulldowns of GCP-SBP-Myc constructs from HEK293T cells, western blot of inputs and bound fractions; untransfected cells as negative control. (Immunoblotting shows a protein as a band on a membrane.)
The target of assay [2] is GCP5mut-SBP-Myc (GCP5 R213A/R228G/L256E/V258E) (human) (UniProt Q96RT8). Described as above.
In a further assay the target is GCP6-SBP-Myc (human) (UniProt B2RWN4). The assay is described as above.
In assay [3] the target is GCP6mut-SBP-Myc (deletion of GCP6 residues 329–341) (human) (UniProt B2RWN4). Described as above.

The chains behind the UniProt entries cited, without tags or fusion partners. Where a name states a change or a piece, a line headed by the entry shows the natural chain unless it says otherwise. A line that says so, or that is headed by a name, gives the form on record, which may keep a tag or linker. Residues count along the entry.
UniProt Q8NHV4: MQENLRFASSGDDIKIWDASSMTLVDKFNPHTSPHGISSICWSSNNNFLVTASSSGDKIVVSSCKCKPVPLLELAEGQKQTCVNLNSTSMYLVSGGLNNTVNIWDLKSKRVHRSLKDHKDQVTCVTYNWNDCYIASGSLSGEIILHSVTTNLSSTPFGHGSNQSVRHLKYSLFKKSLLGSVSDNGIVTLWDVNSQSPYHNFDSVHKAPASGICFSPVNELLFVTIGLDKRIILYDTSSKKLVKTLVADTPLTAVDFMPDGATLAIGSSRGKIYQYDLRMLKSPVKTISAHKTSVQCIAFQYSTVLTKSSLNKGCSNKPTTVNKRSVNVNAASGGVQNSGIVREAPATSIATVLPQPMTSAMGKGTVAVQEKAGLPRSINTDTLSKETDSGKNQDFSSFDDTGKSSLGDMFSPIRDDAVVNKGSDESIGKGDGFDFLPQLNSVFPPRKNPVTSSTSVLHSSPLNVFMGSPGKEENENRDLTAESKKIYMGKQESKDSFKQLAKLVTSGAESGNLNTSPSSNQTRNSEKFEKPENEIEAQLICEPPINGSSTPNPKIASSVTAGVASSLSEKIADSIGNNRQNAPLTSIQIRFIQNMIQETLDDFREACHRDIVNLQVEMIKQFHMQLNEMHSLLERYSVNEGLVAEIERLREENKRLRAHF
UniProt Q96RT8: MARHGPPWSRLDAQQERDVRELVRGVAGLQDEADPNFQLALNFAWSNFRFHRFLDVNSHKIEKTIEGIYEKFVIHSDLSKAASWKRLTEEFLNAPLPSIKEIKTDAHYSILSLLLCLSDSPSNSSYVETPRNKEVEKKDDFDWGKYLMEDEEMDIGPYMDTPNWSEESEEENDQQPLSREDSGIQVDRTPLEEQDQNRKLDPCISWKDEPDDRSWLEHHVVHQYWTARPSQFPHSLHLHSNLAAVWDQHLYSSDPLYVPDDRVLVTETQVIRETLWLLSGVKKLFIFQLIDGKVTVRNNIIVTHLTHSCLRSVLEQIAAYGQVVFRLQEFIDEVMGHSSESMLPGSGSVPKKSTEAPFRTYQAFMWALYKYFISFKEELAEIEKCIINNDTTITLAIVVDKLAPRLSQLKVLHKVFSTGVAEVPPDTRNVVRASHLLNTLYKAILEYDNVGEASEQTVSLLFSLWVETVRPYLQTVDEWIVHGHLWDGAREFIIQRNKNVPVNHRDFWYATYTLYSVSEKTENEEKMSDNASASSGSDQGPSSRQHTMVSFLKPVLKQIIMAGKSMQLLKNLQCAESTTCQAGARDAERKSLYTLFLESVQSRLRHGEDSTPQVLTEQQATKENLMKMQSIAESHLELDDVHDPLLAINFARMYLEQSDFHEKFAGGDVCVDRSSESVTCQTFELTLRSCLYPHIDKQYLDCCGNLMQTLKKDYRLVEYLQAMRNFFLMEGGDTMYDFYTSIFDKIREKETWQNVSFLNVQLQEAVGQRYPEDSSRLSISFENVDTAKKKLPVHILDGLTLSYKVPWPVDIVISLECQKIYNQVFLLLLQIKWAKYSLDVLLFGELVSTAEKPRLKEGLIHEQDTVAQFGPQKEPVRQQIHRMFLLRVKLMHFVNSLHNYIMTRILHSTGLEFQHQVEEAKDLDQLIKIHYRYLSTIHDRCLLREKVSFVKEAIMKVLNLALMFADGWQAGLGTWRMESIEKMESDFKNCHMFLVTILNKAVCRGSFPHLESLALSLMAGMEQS
UniProt B2RWN4: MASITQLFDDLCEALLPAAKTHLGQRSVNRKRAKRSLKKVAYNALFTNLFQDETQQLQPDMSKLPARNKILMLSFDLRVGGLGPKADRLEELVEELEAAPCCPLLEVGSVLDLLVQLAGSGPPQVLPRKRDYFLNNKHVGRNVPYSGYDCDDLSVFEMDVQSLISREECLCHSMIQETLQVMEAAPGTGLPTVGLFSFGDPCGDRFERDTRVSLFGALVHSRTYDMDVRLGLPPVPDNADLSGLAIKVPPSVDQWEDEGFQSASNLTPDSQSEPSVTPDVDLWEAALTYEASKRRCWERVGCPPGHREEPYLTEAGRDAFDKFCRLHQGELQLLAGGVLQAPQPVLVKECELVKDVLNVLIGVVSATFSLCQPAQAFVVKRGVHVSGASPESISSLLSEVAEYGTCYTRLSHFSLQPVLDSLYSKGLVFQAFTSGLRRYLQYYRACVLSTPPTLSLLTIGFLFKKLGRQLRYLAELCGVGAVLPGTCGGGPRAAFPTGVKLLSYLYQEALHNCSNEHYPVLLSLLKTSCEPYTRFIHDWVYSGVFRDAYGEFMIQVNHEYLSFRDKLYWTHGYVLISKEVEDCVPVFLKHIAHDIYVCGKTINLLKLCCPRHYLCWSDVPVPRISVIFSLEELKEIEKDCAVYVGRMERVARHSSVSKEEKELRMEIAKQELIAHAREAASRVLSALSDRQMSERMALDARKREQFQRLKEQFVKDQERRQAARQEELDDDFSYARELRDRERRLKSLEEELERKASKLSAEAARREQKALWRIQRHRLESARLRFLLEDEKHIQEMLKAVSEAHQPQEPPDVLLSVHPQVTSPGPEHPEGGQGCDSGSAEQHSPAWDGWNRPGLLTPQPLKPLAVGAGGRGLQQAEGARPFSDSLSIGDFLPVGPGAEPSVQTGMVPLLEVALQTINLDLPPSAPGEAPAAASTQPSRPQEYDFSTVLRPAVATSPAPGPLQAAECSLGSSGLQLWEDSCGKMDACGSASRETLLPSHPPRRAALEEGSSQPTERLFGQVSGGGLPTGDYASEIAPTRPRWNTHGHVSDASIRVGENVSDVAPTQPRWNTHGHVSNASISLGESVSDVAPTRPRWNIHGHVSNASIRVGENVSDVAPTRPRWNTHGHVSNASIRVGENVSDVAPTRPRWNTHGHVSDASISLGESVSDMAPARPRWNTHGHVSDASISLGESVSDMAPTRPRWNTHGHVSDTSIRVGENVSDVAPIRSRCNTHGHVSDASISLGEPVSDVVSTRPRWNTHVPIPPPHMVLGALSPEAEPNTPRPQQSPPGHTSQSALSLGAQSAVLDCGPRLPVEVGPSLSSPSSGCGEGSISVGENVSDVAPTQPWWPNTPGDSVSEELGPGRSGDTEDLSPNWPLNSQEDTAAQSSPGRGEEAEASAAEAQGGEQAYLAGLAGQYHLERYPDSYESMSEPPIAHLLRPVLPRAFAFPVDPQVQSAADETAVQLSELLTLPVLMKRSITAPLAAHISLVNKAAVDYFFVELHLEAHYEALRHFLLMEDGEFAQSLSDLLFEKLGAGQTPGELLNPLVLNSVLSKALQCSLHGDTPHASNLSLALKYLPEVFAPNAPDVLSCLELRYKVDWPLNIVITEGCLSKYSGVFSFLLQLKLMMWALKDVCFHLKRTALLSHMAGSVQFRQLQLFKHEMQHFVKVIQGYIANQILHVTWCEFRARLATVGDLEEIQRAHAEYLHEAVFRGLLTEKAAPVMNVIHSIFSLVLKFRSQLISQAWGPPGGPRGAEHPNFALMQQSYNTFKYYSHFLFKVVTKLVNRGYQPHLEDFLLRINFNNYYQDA
GCP6mut-SBP-Myc (deletion of GCP6 residues 329–341) (B2RWN4, form named): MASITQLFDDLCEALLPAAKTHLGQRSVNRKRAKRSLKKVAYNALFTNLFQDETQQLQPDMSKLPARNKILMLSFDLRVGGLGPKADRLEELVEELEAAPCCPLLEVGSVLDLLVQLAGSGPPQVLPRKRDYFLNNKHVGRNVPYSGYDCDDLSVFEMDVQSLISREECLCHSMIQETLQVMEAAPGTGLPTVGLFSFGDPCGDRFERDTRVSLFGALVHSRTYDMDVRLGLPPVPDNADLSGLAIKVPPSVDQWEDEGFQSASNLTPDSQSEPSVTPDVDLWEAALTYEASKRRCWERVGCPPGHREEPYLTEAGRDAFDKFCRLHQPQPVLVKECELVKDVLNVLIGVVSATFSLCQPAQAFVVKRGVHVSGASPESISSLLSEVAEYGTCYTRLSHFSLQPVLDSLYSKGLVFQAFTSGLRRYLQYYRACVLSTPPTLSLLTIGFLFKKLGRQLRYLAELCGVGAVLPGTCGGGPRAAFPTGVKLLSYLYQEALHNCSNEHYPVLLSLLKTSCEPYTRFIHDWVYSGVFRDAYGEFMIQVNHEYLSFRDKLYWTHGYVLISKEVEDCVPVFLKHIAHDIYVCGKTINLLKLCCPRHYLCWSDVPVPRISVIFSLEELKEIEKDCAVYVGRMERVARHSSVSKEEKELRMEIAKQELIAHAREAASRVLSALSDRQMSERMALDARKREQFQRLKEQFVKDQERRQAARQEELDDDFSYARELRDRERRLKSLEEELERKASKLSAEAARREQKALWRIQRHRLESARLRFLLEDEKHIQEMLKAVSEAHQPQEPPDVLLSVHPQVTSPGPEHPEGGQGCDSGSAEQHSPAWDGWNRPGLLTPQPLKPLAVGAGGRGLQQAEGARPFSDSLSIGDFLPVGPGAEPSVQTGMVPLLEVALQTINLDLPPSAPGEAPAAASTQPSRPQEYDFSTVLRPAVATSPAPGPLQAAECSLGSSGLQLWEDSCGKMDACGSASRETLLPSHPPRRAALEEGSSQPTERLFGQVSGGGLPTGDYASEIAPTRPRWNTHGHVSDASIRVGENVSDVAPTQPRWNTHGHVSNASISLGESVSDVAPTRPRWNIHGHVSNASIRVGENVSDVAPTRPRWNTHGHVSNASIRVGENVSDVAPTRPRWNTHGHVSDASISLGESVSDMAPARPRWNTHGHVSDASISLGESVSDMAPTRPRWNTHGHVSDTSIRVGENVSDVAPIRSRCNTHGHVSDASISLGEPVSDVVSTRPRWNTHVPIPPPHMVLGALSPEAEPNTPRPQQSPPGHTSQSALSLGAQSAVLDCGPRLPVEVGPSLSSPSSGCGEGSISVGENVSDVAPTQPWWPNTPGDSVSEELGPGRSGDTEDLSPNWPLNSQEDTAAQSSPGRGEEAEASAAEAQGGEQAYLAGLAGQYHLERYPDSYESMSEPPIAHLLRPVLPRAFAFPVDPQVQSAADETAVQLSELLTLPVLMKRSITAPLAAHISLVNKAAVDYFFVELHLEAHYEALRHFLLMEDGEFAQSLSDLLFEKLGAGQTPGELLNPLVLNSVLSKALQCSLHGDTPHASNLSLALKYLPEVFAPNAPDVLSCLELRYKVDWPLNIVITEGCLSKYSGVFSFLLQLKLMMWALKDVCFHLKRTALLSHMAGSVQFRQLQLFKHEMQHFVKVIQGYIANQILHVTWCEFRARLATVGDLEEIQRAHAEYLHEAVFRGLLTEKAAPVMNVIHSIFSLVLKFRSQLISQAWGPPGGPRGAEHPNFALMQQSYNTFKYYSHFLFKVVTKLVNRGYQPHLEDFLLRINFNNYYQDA
UniProt P23258: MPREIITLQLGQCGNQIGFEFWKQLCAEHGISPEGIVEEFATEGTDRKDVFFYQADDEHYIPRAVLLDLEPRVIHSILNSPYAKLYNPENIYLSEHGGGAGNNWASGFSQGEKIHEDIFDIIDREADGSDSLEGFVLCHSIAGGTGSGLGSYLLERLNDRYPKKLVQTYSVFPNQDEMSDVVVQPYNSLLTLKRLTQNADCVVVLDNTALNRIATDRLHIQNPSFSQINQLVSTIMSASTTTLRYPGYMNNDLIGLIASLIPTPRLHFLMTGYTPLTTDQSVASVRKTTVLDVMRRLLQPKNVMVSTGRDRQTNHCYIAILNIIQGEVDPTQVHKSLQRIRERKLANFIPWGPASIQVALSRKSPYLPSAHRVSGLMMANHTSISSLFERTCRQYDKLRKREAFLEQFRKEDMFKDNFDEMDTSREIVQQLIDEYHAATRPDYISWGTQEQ

Results are given in words; binding and its absence hold for the method and conditions named. In cells and extracts the contact can be indirect. Some entries that bind do so weakly or less than the wild type.

On to “γ-tubulin from HEK293T cells (from UniProt P23258 1-451)”, for which the binding entry in assay [1] is “binds”.

With “NEDD1 detected in SBP pulldowns from HEK293T cells (from UniProt Q8NHV4 1-660)”, the binding entry (with GCP5-SBP-Myc (human); in assay [2]; in the assay with GCP6-SBP-Myc (human); in assay [3]) was “binds” throughout.

The values above are taken from publication PMC13390622.
